Experimental data published in the M2OR odorant receptor database.
This is a selection; strong and weak results do not stand in their true shares. Calls are pooled over several reports, among them a noisy single-well screen. Some of the results follow.

Amino acid sequences for entries named in this document (tags omitted). A change or cut given only in a name is not applied to a line headed by its entry.
UniProt A6NDL8: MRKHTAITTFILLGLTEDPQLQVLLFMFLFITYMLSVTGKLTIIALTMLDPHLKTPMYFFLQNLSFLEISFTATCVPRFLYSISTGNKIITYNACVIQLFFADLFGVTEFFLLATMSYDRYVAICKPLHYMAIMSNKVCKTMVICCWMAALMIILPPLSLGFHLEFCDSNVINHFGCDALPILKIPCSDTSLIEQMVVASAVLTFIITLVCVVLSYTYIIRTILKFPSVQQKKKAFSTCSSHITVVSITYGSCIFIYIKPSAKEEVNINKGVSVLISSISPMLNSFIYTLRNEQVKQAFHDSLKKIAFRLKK
UniProt A6NIJ9: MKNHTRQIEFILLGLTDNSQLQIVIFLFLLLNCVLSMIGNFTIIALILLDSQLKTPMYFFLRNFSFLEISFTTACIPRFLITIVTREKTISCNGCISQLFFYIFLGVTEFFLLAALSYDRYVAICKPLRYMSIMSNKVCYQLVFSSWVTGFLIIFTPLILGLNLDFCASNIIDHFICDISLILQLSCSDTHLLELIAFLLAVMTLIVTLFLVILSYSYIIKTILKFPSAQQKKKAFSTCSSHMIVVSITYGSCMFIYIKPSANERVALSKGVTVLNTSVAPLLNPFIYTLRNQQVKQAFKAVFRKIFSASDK

Assays:
Conditions in all cases: stereoisomer not certain
OR6C4 = system: T1, OR6C4
T1 sequence (whole entry): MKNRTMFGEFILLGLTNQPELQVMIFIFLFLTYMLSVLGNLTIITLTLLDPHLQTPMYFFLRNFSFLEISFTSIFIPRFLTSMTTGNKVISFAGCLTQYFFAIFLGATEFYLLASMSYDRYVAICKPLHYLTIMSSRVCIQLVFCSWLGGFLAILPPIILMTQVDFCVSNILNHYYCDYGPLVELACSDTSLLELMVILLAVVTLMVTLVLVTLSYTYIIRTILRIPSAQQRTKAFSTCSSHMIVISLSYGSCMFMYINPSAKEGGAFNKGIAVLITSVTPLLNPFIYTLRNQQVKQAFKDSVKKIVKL
How it was run: (§1)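 Each entry records the cell line, G-protein, co-transfected protein and tags used. Methods varied with the source, often transient luciferase assays in mammalian cell lines. A receptor–molecule pair is called responsive (active) if the original authors judged its signal statistically different from baseline and non-responsive (inactive) otherwise.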

OR6C6 (Homo sapiens) = target: T2, OR6C6 (Homo sapiens) (UniProt A6NF89)
T2 sequence (whole entry): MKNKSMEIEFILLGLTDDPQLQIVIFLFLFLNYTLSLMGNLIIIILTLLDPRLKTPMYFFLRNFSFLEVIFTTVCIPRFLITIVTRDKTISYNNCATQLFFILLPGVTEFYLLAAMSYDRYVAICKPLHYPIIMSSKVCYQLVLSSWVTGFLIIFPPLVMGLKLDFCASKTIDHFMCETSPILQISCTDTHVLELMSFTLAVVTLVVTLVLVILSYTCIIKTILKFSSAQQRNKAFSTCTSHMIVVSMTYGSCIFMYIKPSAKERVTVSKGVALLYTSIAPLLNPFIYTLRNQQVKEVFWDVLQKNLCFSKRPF
How it was run: as §1

OR6C65 (Homo sapiens) = target: T3, OR6C65 (Homo sapiens) (UniProt A6NJZ3)
T3 sequence (whole entry): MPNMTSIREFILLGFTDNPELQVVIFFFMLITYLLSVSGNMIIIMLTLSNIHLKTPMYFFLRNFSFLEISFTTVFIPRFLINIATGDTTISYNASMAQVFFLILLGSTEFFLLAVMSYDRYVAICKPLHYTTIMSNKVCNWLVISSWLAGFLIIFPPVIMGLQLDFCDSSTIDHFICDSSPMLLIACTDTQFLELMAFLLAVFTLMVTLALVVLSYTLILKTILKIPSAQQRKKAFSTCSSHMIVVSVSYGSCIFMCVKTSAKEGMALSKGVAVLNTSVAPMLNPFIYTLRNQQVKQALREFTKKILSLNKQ
How it was run: as §1

OR6C74 (Homo sapiens) = target: T4, OR6C74 (Homo sapiens) (UniProt A6NCV1)
T4 sequence (whole entry): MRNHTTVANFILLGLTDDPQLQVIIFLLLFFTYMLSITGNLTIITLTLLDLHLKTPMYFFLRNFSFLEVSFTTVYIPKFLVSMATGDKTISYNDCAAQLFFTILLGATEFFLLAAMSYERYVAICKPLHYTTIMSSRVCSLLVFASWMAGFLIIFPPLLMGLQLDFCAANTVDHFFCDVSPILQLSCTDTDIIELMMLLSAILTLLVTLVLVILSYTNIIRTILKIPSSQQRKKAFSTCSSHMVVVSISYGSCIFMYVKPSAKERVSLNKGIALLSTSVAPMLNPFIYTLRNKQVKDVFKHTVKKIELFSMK
How it was run: as §1

OR6C75 (Homo sapiens) = target: T5, OR6C75 (Homo sapiens) (UniProt A6NL08)
T5 sequence (whole entry): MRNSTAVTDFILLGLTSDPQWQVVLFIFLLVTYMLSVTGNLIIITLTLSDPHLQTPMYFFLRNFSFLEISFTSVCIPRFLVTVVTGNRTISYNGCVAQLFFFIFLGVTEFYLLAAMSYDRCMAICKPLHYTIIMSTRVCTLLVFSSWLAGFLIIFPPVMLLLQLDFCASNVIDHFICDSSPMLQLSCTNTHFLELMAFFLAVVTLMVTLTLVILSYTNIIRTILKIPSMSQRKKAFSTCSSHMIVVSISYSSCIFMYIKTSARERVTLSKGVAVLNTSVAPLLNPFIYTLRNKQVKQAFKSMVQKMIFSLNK
How it was run: as §1

OR6C76 (Homo sapiens) = target: T6, OR6C76 (Homo sapiens) (UniProt A6NM76)
T6 sequence (whole entry): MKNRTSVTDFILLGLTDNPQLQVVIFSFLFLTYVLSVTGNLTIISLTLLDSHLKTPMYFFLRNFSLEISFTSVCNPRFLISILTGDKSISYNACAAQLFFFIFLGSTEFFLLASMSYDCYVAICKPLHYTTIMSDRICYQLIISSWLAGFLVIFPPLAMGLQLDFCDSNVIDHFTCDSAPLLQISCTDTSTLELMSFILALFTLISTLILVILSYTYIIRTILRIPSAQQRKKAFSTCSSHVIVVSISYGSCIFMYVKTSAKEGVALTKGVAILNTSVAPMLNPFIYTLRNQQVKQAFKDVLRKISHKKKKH
How it was run: as §1

OR6F1 (Homo sapiens) = target: T7, OR6F1 (Homo sapiens) (UniProt Q8NGZ6)
T7 sequence (whole entry): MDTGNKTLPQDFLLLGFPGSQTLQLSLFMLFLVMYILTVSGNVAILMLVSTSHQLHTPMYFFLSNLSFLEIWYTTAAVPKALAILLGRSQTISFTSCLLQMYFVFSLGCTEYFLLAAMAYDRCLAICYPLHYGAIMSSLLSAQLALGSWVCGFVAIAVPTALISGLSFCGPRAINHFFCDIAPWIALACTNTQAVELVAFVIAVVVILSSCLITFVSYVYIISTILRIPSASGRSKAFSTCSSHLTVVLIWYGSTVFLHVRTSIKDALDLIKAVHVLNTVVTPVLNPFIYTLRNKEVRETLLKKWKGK
How it was run: as §1

OR6C4 (Homo sapiens) = OR6C4 (Homo sapiens) (UniProt Q8NGE1)
How it was run: as §1

OR6C68 (Homo sapiens) = OR6C68 (Homo sapiens) (UniProt A6NDL8)
How it was run: as §1

OR6C70 (Homo sapiens) = OR6C70 (Homo sapiens) (UniProt A6NIJ9)
How it was run: as §1

Measured: odorant receptor agonist call

C=CC(C)(O)CCC=C(C)C (configuration not stated)
not listed: OR6C4 (Homo sapiens) | OR6C68 (Homo sapiens) | OR6C70 (Homo sapiens)
inactive: all other assays above

CC12C=CCC1C1CCC3=CC(=O)CCC3(C)C1CC2 (configuration not stated)
not listed: OR6C4 (Homo sapiens) | OR6C68 (Homo sapiens) | OR6C70 (Homo sapiens)
inactive: all other assays above

CC(=O)OCC=C(C)CCC=C(C)C
not listed: OR6C4 (Homo sapiens) | OR6C68 (Homo sapiens) | OR6C70 (Homo sapiens)
inactive: all other assays above

CCCC(=O)O
not listed: OR6C4 (Homo sapiens) | OR6C68 (Homo sapiens) | OR6C70 (Homo sapiens)
inactive: all other assays above

CCCCCCOC(=O)CCC
not listed: OR6C4 (Homo sapiens) | OR6C68 (Homo sapiens) | OR6C70 (Homo sapiens)
inactive: all other assays above

O=C1CCCCCCCCCCCC(=O)OCCO1
not listed: OR6C4 (Homo sapiens) | OR6C68 (Homo sapiens) | OR6C70 (Homo sapiens)
inactive: all other assays above

CC12CCC(C1)C(C)(C)C2=O (configuration not stated)
not listed: OR6C4 (Homo sapiens) | OR6C68 (Homo sapiens) | OR6C70 (Homo sapiens)
inactive: all other assays above

COC(=O)c1ccccc1
active: OR6F1 (Homo sapiens)
not listed: OR6C4 (Homo sapiens) | OR6C68 (Homo sapiens) | OR6C70 (Homo sapiens)
inactive: all other assays above

CC12C=CCC1C1CCC3CC(=O)CCC3(C)C1CC2 (configuration not stated)
inactive: all assays above

CCCCO
not listed: OR6C4 (Homo sapiens) | OR6C68 (Homo sapiens) | OR6C70 (Homo sapiens)
inactive: all other assays above

CC(=O)OC1CC2CCC1(C)C2(C)C (configuration not stated)
not listed: OR6C4 (Homo sapiens) | OR6C68 (Homo sapiens) | OR6C70 (Homo sapiens)
inactive: all other assays above

O=C1CCCCC1
not listed: OR6C4 (Homo sapiens) | OR6C68 (Homo sapiens) | OR6C70 (Homo sapiens)
inactive: all other assays above
